From PubChem BioAssay AID540276 (National Center for Advancing Translational Sciences (NCATS), 2011)
The whole screen tested about 300,000 compounds, of which about 5,400 (1.8%) were called active. The inconclusive results got no clear call from the source; some entries with a clear call stand among them for comparison. Calls come from the whole dose curve; tested in HEK293 cells. Potencies beside an inconclusive call are fits to weak or partial responses and may not hold up.

assay: qHTS for inhibitors of binding or entry into cells for Marburg Virus; conditions: Marburg virus pseudotyped entry inhibition, cell reporter; activity change, negative = inhibition: at 37.8 µM (top of the series) unless noted
% is set by controls: 0 for no effect and ±100 for the full control effect; potency is the fitted concentration of half-maximal effect.

| SMILES | Potency | activity change, negative = inhibition |
| --- | --- | --- |
| O=C(NC(=S)Nc1cccc2c(O)cccc12)c1ccccc1[N+](=O)[O-] | inconclusive: 7.08 µM [activator, partial curve, poor fit] | – |
| CCOC(=O)COn1c(=O)c(-c2ccc(Br)cc2)[n+]([O-])c2ccccc21 | – | inconclusive: 0.0979% [activator] |
| O=[N+]([O-])c1ccc(Sc2ncccn2)c([N+](=O)[O-])c1 | inconclusive: 35.5 µM [inhibitor, single point] | – |
| C/C(=N\NC(=O)CNC(=O)c1ccc2c(c1)OCCO2)c1ccco1 | – | inactive: -16% |
| O=C(NCCC1CCCCN1S(=O)(=O)c1cccs1)C(=O)Nc1ccccc1 (centres undefined) | inconclusive: 2.82 µM [activator, single point] | – |
| CCOc1ccccc1N1CCN(C(=O)Cc2ccc(S(=O)(=O)N3CCOCC3)s2)CC1 | inconclusive: 3.16 µM [activator, single point] | – |
| COC(=O)Nc1nn(-c2ccc(OC)cc2)c(=O)c(C#N)c1C | inconclusive: 11.2 µM [activator, single point] | – |
| O=C(NCc1ccccc1)c1ccc2nc(N3CCOCC3)sc2c1 | – | inactive: -6.37% [at 46.1 µM] |
| Cc1nc2c(c3c1[nH]c1ccccc13)C(=O)CC(C)(C)C2 | inconclusive: 14.1 µM [inhibitor, single point] | – |
| OC(COc1ccc(F)cc1)CN1CCN(CC(O)COc2ccc(F)cc2)CC1 (centres undefined) | inconclusive: 11.2 µM [inhibitor, partial curve] | – |
| O=C(CN1CCN(S(=O)(=O)/C=C/c2ccccc2)CC1)NCC(F)(F)F | – | inactive: -10.5% [at 46.1 µM] |
| O=C(CC1SCCNC1=O)Nc1ccc(Cl)cc1 (centres undefined) | inconclusive: 22.4 µM [activator, single point] | – |
| Cc1cc(S(=O)(=O)N2CCCOC2CNC(=O)C(=O)NCc2ccco2)ccc1F (centres undefined) | inconclusive: 2.24 µM [inhibitor, partial curve, poor fit] | – |
| Cc1ccc(-c2cc(C(=O)N3CCCC3)no2)cc1 | inconclusive: 7.3 µM [inhibitor, partial curve] | – |
| CCN(CC(O)COCc1ccc(Cl)cc1)C1CCCCC1 (centres undefined) | inconclusive: 14.1 µM [inhibitor, single point] | – |
| Cc1cc(C)n2cc(CSc3ncn[nH]3)nc2n1 | – | inactive: -18.1% [at 46.1 µM] |
| CCCC1OC23CCCCC2C(C#N)(C(=N)O3)C1(C#N)C#N (centres undefined) | – | inactive: 0.0815% |
| CNC(=S)N1CCn2cccc2C1c1ccc(F)cc1 (centres undefined) | inconclusive: 20 µM [inhibitor, single point] | – |
| Cc1ccc(OCC(=O)N2CCCC(N3CCN(c4ccc(F)cc4)CC3)C2)cc1 (centres undefined) | inconclusive: 31.6 µM [inhibitor, single point] | – |
| CC(C)[C@H](NS(=O)(=O)c1ccccc1)C(=O)OCC(=O)Nc1ccccc1Sc1ccccc1 | inconclusive: 25.1 µM [inhibitor, single point] | – |
| CC(=S)c1c(C)cc2cc(C)ccn12 | inconclusive: 15.8 µM [inhibitor, single point] | – |
| Cc1ccc(C(C(=O)NC2CCCC2)N(C(=O)Cc2cccs2)c2cccc(C)c2C)o1 (centres undefined) | – | inactive: -12.8% |

Some of the entries so far, with bars between the fields.
SMILES | Potency | activity change, negative = inhibition
Cc1cc(S(=O)(=O)N2CCCOC2CNC(=O)C(=O)NCc2ccco2)ccc1F (centres undefined) | inconclusive: 2.24 µM [inhibitor, partial curve, poor fit] | –
Cc1ccc(-c2cc(C(=O)N3CCCC3)no2)cc1 | inconclusive: 7.3 µM [inhibitor, partial curve] | –
CCN(CC(O)COCc1ccc(Cl)cc1)C1CCCCC1 (centres undefined) | inconclusive: 14.1 µM [inhibitor, single point] | –
Cc1cc(C)n2cc(CSc3ncn[nH]3)nc2n1 | – | inactive: -18.1% [at 46.1 µM]
CCCC1OC23CCCCC2C(C#N)(C(=N)O3)C1(C#N)C#N (centres undefined) | – | inactive: 0.0815%
CNC(=S)N1CCn2cccc2C1c1ccc(F)cc1 (centres undefined) | inconclusive: 20 µM [inhibitor, single point] | –
Cc1ccc(OCC(=O)N2CCCC(N3CCN(c4ccc(F)cc4)CC3)C2)cc1 (centres undefined) | inconclusive: 31.6 µM [inhibitor, single point] | –
CC(C)[C@H](NS(=O)(=O)c1ccccc1)C(=O)OCC(=O)Nc1ccccc1Sc1ccccc1 | inconclusive: 25.1 µM [inhibitor, single point] | –

Remaining list, next part

| SMILES | Potency | activity change, negative = inhibition |
| --- | --- | --- |
| Cc1nc2cc(-c3ccc(Cl)cc3)nn2c(C)c1CCC(=O)NCc1ccco1 | – | inactive: 6.71% |
| COc1ccc(C2C3=C(N=C4SCC(=O)N42)c2ccccc2CC3)cc1 (centres undefined) | inconclusive: 35.5 µM [inhibitor, partial curve, poor fit] | – |
| Cc1cc(C)nc(Nc2ncc(O)n2-c2ccc(C)c(Cl)c2)n1 | – | inactive: -29.2% [at 46.1 µM] |
| CCOC(=O)C1=C(C)NC(=O)NC1c1cn(-c2ccccc2)nc1-c1cccs1 (centres undefined) | inconclusive: 9.2 µM [inhibitor, single point] | – |
| O=C(Cc1ccccc1)Nc1ccc(NC(=O)Cc2ccccc2)c(Cl)c1 | – | inactive: -11.4% |
| Cc1ccc2[nH]c3c(NCCCN4CCCC4=O)ncnc3c2c1 | – | inactive: 6% |
| CC12CCC(c3c(C(=O)Nc4nccs4)nn(-c4ccccc4)c31)C2(C)C (centres undefined) | inconclusive: 18.3 µM [inhibitor, partial curve, poor fit] | – |
| CC(C)CCNC(=O)c1cc2c(=O)n3ccccc3nc2s1 | inconclusive: 2.24 µM [activator, partial curve, poor fit] | – |
| COc1ccc(NC(=S)Nc2ccc(OC)cc2OC)c(OC)c1 | inconclusive: 0.562 µM [activator, full curve, poor fit] | – |
| COCc1c(Br)c(C)nc(OCC(=O)N/N=C/c2cc(C)n(-c3ccc([N+](=O)[O-])cc3)c2C)c1C#N | inconclusive: 1.16 µM [inhibitor, full curve, poor fit] | – |
| Cc1cc(C)cc(NC(=S)/C(=C(\[O-])c2ccc(Cl)s2)[n+]2cccc(C)c2)c1 | inconclusive: 0.355 µM [activator, single point] | – |
| COc1cc(OC)c(/C=N/n2c(C)nnc2C)c(OC)c1 | inconclusive: 2.82 µM [inhibitor, full curve, poor fit] | – |
| COc1ccc(/C=C/C(=O)c2ccc3c(c2)OCO3)cc1OC | inconclusive: 11.2 µM [activator, partial curve, poor fit] | – |
| C=CCn1c(C)cc(C(=O)CSc2nc3ccccc3[nH]2)c1C | inconclusive: 16.4 µM [inhibitor, single point] | – |
| O=C(/C=C/c1c(F)cccc1Cl)NCc1ccco1 | – | inactive: 1.58% |
| CCOC(=O)c1cnc2ccc(Cl)cc2c1NCCN(C)C | inconclusive: 20 µM [inhibitor, partial curve, poor fit] | – |
| COCCNC(=O)C(=O)Nc1ccc(Br)cc1 | – | inactive: -9.13% |
| COc1ccc(C(=O)NC(=S)NCCO)cc1Br | – | inactive: 7.4% |
| COc1cccc(/C=N/NC(=O)CSc2ccccc2C)c1OC | inconclusive: 0.1 µM [activator, full curve, poor fit] | – |
| O=C(Nc1ccc(S(=O)(=O)NCc2cccnc2)cc1)c1ccccc1Cl | inconclusive: 0.891 µM [inhibitor, full curve, poor fit] | – |
| Cc1noc(NS(=O)(=O)c2ccc(NS(=O)(=O)c3ccc(Cl)cc3)cc2)c1C | – | inactive: -0.396% |
| COc1ccc(NS(=O)(=O)c2ccc(N3CCOCC3)c(NC(=O)c3ccccc3Cl)c2)cc1 | inconclusive: 4.61 µM [inhibitor, partial curve, poor fit] | – |
